Laboratory results published in patent US11639371B2, “Peptidylic inhibitors of nucleolin (NCL) targeting CAG-repeat RNA toxicity and methods for reducing polyQ-mediated toxicity in polyQ diseases” (The Chinese University of Hong Kong, priority 2016, dated 2023).
Part of at least one peptide drawing is inferred or uncertain, most often the ends. Peptide text beside a SMILES is read from it.

Legend:
Conditions in all cases: 25° C., P3L 2 mM titrated to RNA 4 μM
unexpanded SCA2CAG22 RNA = assay: Isothermal titration calorimetry (ITC) binding assay, SCA2CAG22 RNA
expanded SCA2CAG72 RNA = assay: Isothermal titration calorimetry (ITC) binding assay, SCA2CAG72 RNA
expanded SCA2CAG42 RNA = assay: Isothermal titration calorimetry (ITC) binding assay, SCA2CAG42 RNA
expanded SCA2CAG55 RNA = assay: Isothermal titration calorimetry (ITC) binding assay, SCA2CAG55 RNA

CC[C@H](C)[C@H](NC(=O)CNC(=O)[C@H](CCCCN)NC(=O)[C@H](CO)NC(=O)[C@H](CCCCN)NC(=O)CNC(=O)[C@H](CC(=O)O)NC(=O)[C@H](CCCCN)NC(=O)[C@H](CO)NC(=O)[C@@H](NC(=O)[C@H](CC(C)C)NC(=O)[C@H](CCCNC(=N)N)NC(=O)[C@@H](NC(=O)[C@H](CCC(=O)O)NC(=O)[C@H](C)N)[C@@H](C)CC)C(C)C)C(=O)N[C@@H](C)C(=O)N[C@@H](Cc1ccc(O)cc1)C(=O)N[C@H](C(=O)N[C@@H](CCC(=O)O)C(=O)N[C@@H](Cc1ccccc1)C(=O)N[C@@H](CCCCN)C(=O)O)[C@@H](C)CC [P3L] (H-AEIRLVSKDGKSKGIAYIEFK-OH)
Kd (unexpanded SCA2CAG22 RNA): 17.3 ± 5.05 µM | Kd (expanded SCA2CAG72 RNA): 0.66 ± 0.16 µM | Kd (expanded SCA2CAG42 RNA): 5.6 ± 0.45 µM | Kd (expanded SCA2CAG55 RNA): 4.83 ± 0.82 µM
